The target of this assay is Bcl-2-associated athanogene 3 (BAG3) protein (human (endogenous in HASMC)) (UniProt O95817). Briefly: co-IP; HASMC lysates, endogenous proteins; untreated, after transfection of Flag-BAG3, after siBAG3, with or without AGEs; 2 mg total protein in 800 µl, 2 µl primary antibody 3 h, Protein A/G beads overnight at 4℃; Western blot.

The chains behind the UniProt entries cited, without tags or fusion partners.
UniProt O95817: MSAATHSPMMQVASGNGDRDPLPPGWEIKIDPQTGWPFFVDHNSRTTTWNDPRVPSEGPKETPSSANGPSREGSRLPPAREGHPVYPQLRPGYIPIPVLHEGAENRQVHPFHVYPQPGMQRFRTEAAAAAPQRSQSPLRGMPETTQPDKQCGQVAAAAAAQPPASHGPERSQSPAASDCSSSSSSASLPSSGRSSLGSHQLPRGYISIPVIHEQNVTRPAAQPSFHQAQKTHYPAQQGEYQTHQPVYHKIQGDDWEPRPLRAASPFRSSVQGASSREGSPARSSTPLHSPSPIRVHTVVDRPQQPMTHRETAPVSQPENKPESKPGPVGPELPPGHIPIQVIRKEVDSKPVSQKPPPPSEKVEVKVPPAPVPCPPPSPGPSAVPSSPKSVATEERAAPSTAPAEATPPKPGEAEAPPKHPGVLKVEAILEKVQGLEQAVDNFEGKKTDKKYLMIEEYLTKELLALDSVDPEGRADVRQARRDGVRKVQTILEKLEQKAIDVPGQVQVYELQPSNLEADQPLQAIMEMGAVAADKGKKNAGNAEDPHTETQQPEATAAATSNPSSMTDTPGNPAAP
UniProt P40763: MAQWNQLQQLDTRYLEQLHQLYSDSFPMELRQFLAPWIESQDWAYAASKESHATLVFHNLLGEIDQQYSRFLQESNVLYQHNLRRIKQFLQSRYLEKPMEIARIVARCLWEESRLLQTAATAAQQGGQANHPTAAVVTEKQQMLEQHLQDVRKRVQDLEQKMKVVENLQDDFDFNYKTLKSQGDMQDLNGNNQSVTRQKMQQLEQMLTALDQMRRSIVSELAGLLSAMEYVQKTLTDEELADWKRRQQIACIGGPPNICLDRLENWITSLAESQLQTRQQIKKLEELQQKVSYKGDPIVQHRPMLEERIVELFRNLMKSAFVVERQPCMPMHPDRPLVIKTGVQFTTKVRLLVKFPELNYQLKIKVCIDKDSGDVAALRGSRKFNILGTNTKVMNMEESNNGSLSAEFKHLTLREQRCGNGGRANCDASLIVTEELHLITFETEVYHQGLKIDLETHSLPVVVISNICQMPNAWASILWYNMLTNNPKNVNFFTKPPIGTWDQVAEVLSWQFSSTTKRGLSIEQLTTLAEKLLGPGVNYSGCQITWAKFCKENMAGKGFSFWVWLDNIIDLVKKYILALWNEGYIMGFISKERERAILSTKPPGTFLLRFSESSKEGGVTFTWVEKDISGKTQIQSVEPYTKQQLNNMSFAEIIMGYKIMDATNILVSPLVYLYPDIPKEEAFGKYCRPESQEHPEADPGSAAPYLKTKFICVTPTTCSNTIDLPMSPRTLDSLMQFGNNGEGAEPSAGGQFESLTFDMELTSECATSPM

These are yes or no findings as the source states them, for the method shown. In cells and extracts the contact can be indirect. Some binding calls cover weakened binding; strength is not graded here.

As to “signal transducer and activator of transcription 3 (STAT3) (from UniProt P40763 1-770)”, the binding result is given as “binds”.
